# Reference: publication PMC10759449
# By UniProt entry, the sequences of proteins in these tests, tags left out.
# UniProt Q86VP1: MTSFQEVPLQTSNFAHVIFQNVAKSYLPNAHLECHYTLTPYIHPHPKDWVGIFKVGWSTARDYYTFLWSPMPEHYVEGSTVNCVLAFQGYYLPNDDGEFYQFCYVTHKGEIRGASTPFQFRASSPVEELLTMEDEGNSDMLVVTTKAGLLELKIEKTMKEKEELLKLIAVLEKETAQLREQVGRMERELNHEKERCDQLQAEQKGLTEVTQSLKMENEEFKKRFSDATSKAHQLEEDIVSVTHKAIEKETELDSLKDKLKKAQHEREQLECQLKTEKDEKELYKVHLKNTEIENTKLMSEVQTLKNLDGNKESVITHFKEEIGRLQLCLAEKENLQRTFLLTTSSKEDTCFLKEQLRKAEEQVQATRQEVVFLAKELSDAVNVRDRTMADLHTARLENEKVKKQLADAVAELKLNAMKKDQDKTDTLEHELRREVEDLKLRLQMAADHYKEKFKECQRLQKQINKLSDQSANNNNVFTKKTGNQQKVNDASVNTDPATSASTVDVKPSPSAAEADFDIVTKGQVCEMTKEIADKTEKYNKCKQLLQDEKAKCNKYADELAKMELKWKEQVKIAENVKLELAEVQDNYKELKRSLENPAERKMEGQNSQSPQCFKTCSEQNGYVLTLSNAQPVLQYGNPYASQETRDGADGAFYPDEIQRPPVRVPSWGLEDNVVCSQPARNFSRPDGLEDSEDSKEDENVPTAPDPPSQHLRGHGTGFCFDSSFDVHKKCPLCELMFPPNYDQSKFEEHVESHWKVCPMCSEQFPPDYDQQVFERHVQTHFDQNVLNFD
# No constants are given. Whether binding was seen depends on the method and setting. In cells and extracts the contact can be indirect. Some results given as binding are weak or reduced against the parent protein; the word gives no strength.
# B1: Protein disulfide isomerase family member 4 (protein, UniProt P13667 21-645)
# chain: VAGAEGPDEDSSNRENAIEDEEEEEEEDDDEEEDDLEVKEENGVLVLNDANFDNFVADKDTVLLEFYAPWCGHCKQFAPEYEKIANILKDKDPPIPVAKIDATSASVLASRFDVSGYPTIKILKKGQAVDYEGSRTQEEIVAKVREVSQPDWTPPPEVTLVLTKENFDEVVNDADIILVEFYAPWCGHCKKLAPEYEKAAKELSKRSPPIPLAKVDATAETDLAKRFDVSGYPTLKIFRKGRPYDYNGPREKYGIVDYMIEQSGPPSKEILTLKQVQEFLKDGDDVIIIGVFKGESDPAYQQYQDAANNLREDYKFHHTFSTEIAKFLKVSQGQLVVMQPEKFQSKYEPRSHMMDVQGSTQDSAIKDFVLKYALPLVGHRKVSNDAKRYTRRPLVVVYYSVDFSFDYRAATQFWRSKVLEVAKDFPEYTFAIADEEDYAGEVKDLGLSESGEDVNAAILDESGKKFAMEPEEFDSDTLREFVTAFKKGKLKPVIKSQPVPKNNKGPVKVVVGKTFDSIVMDPKKDVLIEFYAPWCGHCKQLEPVYNSLAKKYKGQKGLVIAKMDATANDVPSDRYKVEGFPTIYFAPSGDKKNPVKFEGGDRDLEHLSKFIEEHATKLSRTKEEL
# Target: Tax1 binding protein 1 (human (endogenous in TNBC cells)) (UniProt Q86VP1)
# Experiment: co-IP; cell lysates of TNBC cells, immunoprecipitation with anti-PDIA4 or anti-TAX1BP1 antibody and protein A/G agarose beads, detection by Western blot
binder,measurement,value
B1,binding,binds
